## Percent effect of library compounds

Source: ChEMBL document CHEMBL3988442, “University of Dundee, Small-Polar-MMV Screening Library” (2021).

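Whole-parasite assay of Trypanosoma brucei over 72 hours; the read-out is not stated. Compounds at 30 µM. The record gives no direction; compounds that gave an IC50 in retests scored well above the rest, so higher reads as stronger inhibition. Values scatter widely below zero; nearly all retest evidence comes from the higher of the two concentrations used. About 64,000 compounds were tested under these conditions; 1.5% (about 940) showed 50% or more at least once.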

The filed quantity is “Percent Effect” (%).
How 0% and 100% were set is not recorded. Most values in the screen are low, and negative values occur.
Compounds were drawn at random from those tested, without regard to their results.

With Cc1cccc(CN2CCCn3c(nnc3CN3CCCC3=O)C2)n1.O=C(O)C(F)(F)F the screen gave -14.56%.
With O=C(CCc1nc2cccnc2[nH]1)NCc1cccnc1 the screen gave 28.89%.
With Cc1oncc1NS(=O)(=O)c1c[nH]c2ncccc12 the screen gave 1.746%.
With Cc1ccc2nc(C)c(C)c(C(=O)N3CCS(=O)(=O)CC3)c2c1 the screen gave 14.74%.
With CC(=O)N1CC(c2ccnc(Nc3nccs3)n2)C1 the screen gave -4.384%.
With O=C(COCC(F)(F)C(F)F)N1CCC(c2ncc[nH]2)CC1 the screen gave 5.878%.
With CC(C)n1ccc(CN2CCOC(CNc3cccnn3)C2)n1 (configuration not stated) the screen gave -1.308%.
With [H][C@@]12C[C@@H](Oc3ccccc3)C[C@]1([H])CN(C(=O)c1cnc(N(C)C)nc1)C2 the screen gave 8.214%.
With Cn1ncc2c(=O)[nH]c(CN3CCCC3c3cccc(F)c3)nc21 (configuration not stated) the screen gave -15.22%.
With CN(C)c1nc(N)nc(CN2CCCC2c2cccs2)n1 (configuration not stated) the screen gave -6.91%.
With [H][C@]12CN(C(=O)c3cnc(C)nc3)CC[C@@]1(O)CCN(C1CCCCC1)C2 the screen gave -83.74%.
With O=C(c1csc(-c2nnc[nH]2)n1)N1CCCCC1Cn1cccn1 (configuration not stated) the screen gave -20.7%.
With O=C(Nc1ccc(I)cc1C(=O)NCCN1CCOCC1)c1cccs1 the screen gave -9.326%.
With N#Cc1ccsc1C(=O)N1CCCCC1Cn1cccn1 (configuration not stated) the screen gave -17.06%.
With CCOc1ccc(N(C)Cc2nc(C)c(C)o2)cc1 the screen gave 96.05%.
With Cc1cccc(-n2ncc3c2CCCC3NCc2cnn(C)c2C)c1C (configuration not stated) the screen gave -0.3053%.
With CCCC1SCCN1C(=O)c1ccc(-n2ncc(C#N)c2N)cc1 (configuration not stated) the screen gave -52.62%.
With NC(=O)c1cnn2c1NCC(CNCC1(c3ccccc3)CCCC1)C2 (configuration not stated) the screen gave 14.67%.
With Cc1cc(C(=O)NCC2(C(N)=O)CCOCC2)nn1C(C)(C)C the screen gave -7.331%.
With O=C(NCc1nc(C2CC2)no1)N1CCOC(c2cccc(F)c2)C1 (configuration not stated) the screen gave -32.12%.
With Cn1ncc2c(=O)[nH]c(N3CCCC3c3cccc(Cl)c3)nc21 (configuration not stated) the screen gave -30.55%.
With OC1(CNCCc2nc3c(s2)CCCC3)CCNC1 (configuration not stated) the screen gave -9.121%.
With Cc1cc(NC(=O)CN2CCCC(Cn3cncn3)C2)on1 (configuration not stated) the screen gave -13.69%.
With CC(C(=O)NCCCN1CCCCCC1=O)n1cncn1 (configuration not stated) the screen gave -29.28%.
With CCCOc1c(Cl)cc(C(=O)N2CCOC23CCN(C)CC3)cc1Cl the screen gave -15.42%.
With Cc1cc(NC(=O)NCC(c2ccc(C)o2)N2CCOCC2)n(C)n1 (configuration not stated) the screen gave -19.3%.
With Cn1cc(C[C@H]2[C@H](O)CCN2C(=O)c2ccsc2)cn1 the screen gave -31.44%.
With Cc1cc2nccc(C3CCCN(C(=O)c4ccccc4F)C3)n2n1 (configuration not stated) the screen gave -13.3%.
With CC(C)OCCOCc1cccc(NC(=O)N2CCCC(O)C2)c1 (configuration not stated) the screen gave -1.687%.
With CN(C)CC1CN(C(=O)Cc2ccccc2)Cc2nccn2C1.O=C(O)C(F)(F)F (configuration not stated) the screen gave -30.18%.
With Cc1noc(CN(C)CC2CCN(CCO)CC2)n1 the screen gave -37.64%.
With O=C(Nc1ccc(CN2CCOCC2)cc1)c1nccn2ccnc12 the screen gave -32.66%.
With c1cnn(CCNCCCOc2ccc3c(c2)OCO3)c1 the screen gave -33.26%.